Test results from article PMC5364489.

Molecular target: Mt56 T7 RNA polymerase (A102D) (UniProt P00573)
Test: EMSA
Conditions: 2.5 uM dsDNA, weaker than wild type, half-saturation compared only in figure, not a true Kd; 50 mM Tris acetate, 10 mM magnesium acetate, 50 mM sodium acetate (pH not stated), 25 °C, 30 min; 1.5% TAE agarose gel; recombinant protein; label: 5' ATTO488 on strand 1

Sequence: GCCAGTAATACGACTCACTATAGGG (double strand) [T7 promoter dsDNA]
- binding result: binds more weakly

Construct, isoform or probe ends are uncertain for at least one entry. A weaker result is weaker than the reference pair of the same experiment.
